In paper PMC3250472:
Like-named read-outs stand apart in the source and are kept apart here. No constants are given. Whether binding was seen depends on the method and setting. In cells and extracts the contact can be indirect. Some results given as binding are weak or reduced against the parent protein; the word gives no strength.

By UniProt entry, the sequences of proteins in these tests, tags left out. Where a name states a change or a piece, a line headed by the entry shows the natural chain unless it says otherwise.
UniProt P01106: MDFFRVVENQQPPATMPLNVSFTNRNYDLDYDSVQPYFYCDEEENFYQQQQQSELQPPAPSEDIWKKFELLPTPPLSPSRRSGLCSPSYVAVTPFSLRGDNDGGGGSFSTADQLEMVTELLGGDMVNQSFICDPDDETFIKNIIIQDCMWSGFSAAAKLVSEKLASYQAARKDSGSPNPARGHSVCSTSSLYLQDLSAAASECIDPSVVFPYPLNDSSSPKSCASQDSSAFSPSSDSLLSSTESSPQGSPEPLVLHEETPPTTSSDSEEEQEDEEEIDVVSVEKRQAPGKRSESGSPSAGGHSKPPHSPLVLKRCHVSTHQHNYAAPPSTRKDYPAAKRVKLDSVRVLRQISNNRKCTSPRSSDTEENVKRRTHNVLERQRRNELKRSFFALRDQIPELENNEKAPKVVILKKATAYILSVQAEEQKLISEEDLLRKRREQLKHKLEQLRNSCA
UniProt O60563: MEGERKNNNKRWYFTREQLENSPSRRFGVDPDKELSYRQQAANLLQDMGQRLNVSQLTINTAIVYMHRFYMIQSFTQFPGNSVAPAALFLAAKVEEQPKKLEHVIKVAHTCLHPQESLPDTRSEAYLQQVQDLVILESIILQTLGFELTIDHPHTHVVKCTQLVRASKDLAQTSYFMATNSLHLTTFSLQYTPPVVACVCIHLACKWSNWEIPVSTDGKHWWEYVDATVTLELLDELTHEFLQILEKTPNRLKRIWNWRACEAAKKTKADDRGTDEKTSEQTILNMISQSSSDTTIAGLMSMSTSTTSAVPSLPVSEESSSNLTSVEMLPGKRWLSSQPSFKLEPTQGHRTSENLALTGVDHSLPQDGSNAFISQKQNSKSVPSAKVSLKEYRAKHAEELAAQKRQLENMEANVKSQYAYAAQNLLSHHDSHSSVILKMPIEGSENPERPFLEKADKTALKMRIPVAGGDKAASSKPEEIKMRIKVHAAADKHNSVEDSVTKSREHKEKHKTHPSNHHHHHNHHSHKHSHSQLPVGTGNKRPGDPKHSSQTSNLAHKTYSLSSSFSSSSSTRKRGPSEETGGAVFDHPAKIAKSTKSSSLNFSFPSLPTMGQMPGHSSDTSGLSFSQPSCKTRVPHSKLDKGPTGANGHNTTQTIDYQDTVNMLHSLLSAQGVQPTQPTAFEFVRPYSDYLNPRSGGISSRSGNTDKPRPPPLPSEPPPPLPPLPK

B1: Miz1 (protein, UniProt Q13105 1-803)
chain: MDFPQHSQHVLEQLNQQRQLGLLCDCTFVVDGVHFKAHKAVLAACSEYFKMLFVDQKDVVHLDISNAAGLGQVLEFMYTAKLSLSPENVDDVLAVATFLQMQDIITACHALKSLAEPATSPGGNAEALATEGGDKRAKEEKVATSTLSRLEQAGRSTPIGPSRDLKEERGGQAQSAASGAEQTEKADAPREPPPVELKPDPTSGMAAAEAEAALSESSEQEMEVEPARKGEEEQKEQEEQEEEGAGPAEVKEEGSQLENGEAPEENENEESAGTDSGQELGSEARGLRSGTYGDRTESKAYGSVIHKCEDCGKEFTHTGNFKRHIRIHTGEKPFSCRECSKAFSDPAACKAHEKTHSPLKPYGCEECGKSYRLISLLNLHKKRHSGEARYRCEDCGKLFTTSGNLKRHQLVHSGEKPYQCDYCGRSFSDPTSKMRHLETHDTDKEHKCPHCDKKFNQVGNLKAHLKIHIADGPLKCRECGKQFTTSGNLKRHLRIHSGEKPYVCIHCQRQFADPGALQRHVRIHTGEKPCQCVMCGKAFTQASSLIAHVRQHTGEKPYVCERCGKRFVQSSQLANHIRHHDNIRPHKCSVCSKAFVNVGDLSKHIIIHTGEKPYLCDKCGRGFNRVDNLRSHVKTVHQGKAGIKILEPEEGSEVSVVTVDDMVTLATEALAATAVTQLTVVPVGAAVTADETEVLKAEISKAVKQVQEEDPNTHILYACDSCGDKFLDANSLAQHVRIHTAQALVMFQTDADFYQQYGPGGTWPAGQVLQAGELVFRPRDGAEGQPALAETSPTAPECPPPAE

Assays:
[1] = target: c-Myc (human (endogenous in PC-3)) (UniProt P01106); assay: co-IP; total lysates of PC-3 cells (transfected with pre-miR negative control or pre-miR-34a for 72 h); precleared lysate incubated with anti-c-Myc antibody or normal rabbit IgG and protein A/G-Sepharose beads overnight at 4°C; lysis and wash buffer 250 mM NaCl, 50 mM HEPES pH 7.5, 0.1% Nonidet P40, 5 mM EDT, protease inhibitors; Western blot
[2] = target: c-Myc (human (endogenous in PC-3)) (UniProt P01106); assay: as above; remark: listed apart in the source

Molecule	binding [1]	binding [2]
positive transcription elongation factor b (P-TEFb) (from UniProt O60563 1-726; P50750 1-372) (complex)	binds	
B1		binds
